Results from US20250289892A1 (TAIZHOU ENZE MEDICAL CENTER GROUP, published 2025).
These are yes or no findings as the source states them, for the method shown. Some entries that bind do so weakly or less than the wild type.

Legend:
[1] = molecular target: HLA-G4 standard protein (human) (UniProt P17693); test: immunoblotting of standard proteins after denaturing PAGE
[2] = molecular target: HLA-G5 standard protein (human) (UniProt P17693); test: as above
[3] = molecular target: HLA-G5 standard protein (human) (UniProt P17693); test: ELISA, HLA-G5 coated in a 2-fold gradient, antibody 1.0 ug/ml

Measured: binding

B1: monoclonal antibody (YWHG-4) against HLA-G isoforms (HLA-G1, HLA-G4, HLA-G5) (antibody, V domains shown)
VH: VQLQQSGAEVVRPGTSVKVSCKASGYASTNYLVEWIKQRPGQGLEWIGVINPGSGRIYYSEKFKGKTTLTADKSSSNAYMQLSSLTSDDSAVYFCARHYGNSAWFAYWGQGTLVTVSA
VL: DIVITQDELSLPVSLGDQAAISCRSSQSIVHSNGNTYLEWYLQKPGQSPKLLIYKVSNRFSGVPDRFRGSGSGTDFTLKISRVEAEDLGVYYCFQASHVPYTFGGGTKLEIKR
notes: FITC-labeled in the flow cytometry; also called hybridoma CCTCC NO: 2021204
binds: all assays above
